Laboratory results: PubChem BioAssay AID1259405 (NCATS, 2018)

Purpose: 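Knock-downs that lift recombinant protein yield in hamster ovary cells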 (primary screen)
Cells: Chinese hamster CHO-K1 ovary cells with stable secreted eGFP expression
Reagent: single siRNA against mouse genes, 0.8 pmol siRNA per well (2 µl of 400 nM stock)
Timing: 3 days
Measured: 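Per-well intracellular GFP measured by laser scanning cytometry, plus viability from ATP luminescence, each relative to plate median of non-targeting control wells, in %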
Direction: GFP, % of control: higher = more GFP per well, higher productivity; viability (ATP), % of control: higher = more viable cells (more ATP)
Rule for the call: 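a knock-down is called active if GFP reaches 120% or more of non-targeting control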
In all, the deposit lists about 50,000 reagents; below is a part drawn at random. About 4,000 of them (8%) were called active. 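Mouse siRNA library applied to hamster cells; one well for each siRNA.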 The numbers tell different reagents against one gene apart.

gene | reagent no. | GFP, % of control | viability (ATP), % of control | Outcome
Elovl6 (ELOVL fatty acid elongase 6) | 1 | 129 | 118 | active
Elovl6 (ELOVL fatty acid elongase 6) | 2 | 110 | 194 | inactive
Elovl6 (ELOVL fatty acid elongase 6) | 3 | 67.4 | 117 | inactive
Exd2 (exonuclease 3'-5' domain containing 2) | 1 | 93.5 | 96.7 | inactive
Exd2 (exonuclease 3'-5' domain containing 2) | 2 | 137 | 86.8 | active
Exd2 (exonuclease 3'-5' domain containing 2) | 3 | 75.2 | 79.6 | inactive
Ache (acetylcholinesterase) | 1 | 87.3 | 98 | inactive
Ache (acetylcholinesterase) | 2 | 41.9 | 22.1 | inactive
Ache (acetylcholinesterase) | 3 | 72.5 | 75.2 | inactive
Or4c106 (olfactory receptor family 4 subfamily C member 106) | 1 | 51.8 | 76.9 | inactive
Or4c106 (olfactory receptor family 4 subfamily C member 106) | 2 | 60.3 | 70.1 | inactive
Or4c106 (olfactory receptor family 4 subfamily C member 106) | 3 | 54.2 | 89.5 | inactive
Tspan1 (tetraspanin 1) | 1 | 30 | 39.9 | inactive
Tspan1 (tetraspanin 1) | 2 | 5.55 | 9.97 | inactive
Tspan1 (tetraspanin 1) | 3 | 74.8 | 74.6 | inactive
Nhlh1 (nescient helix loop helix 1) | 1 | 72.4 | 80.8 | inactive
Nhlh1 (nescient helix loop helix 1) | 2 | 104 | 91.7 | inactive
Nhlh1 (nescient helix loop helix 1) | 3 | 81.2 | 100 | inactive
Wfdc5 (WAP four-disulfide core domain 5) | 1 | 55.1 | 54.5 | inactive
Wfdc5 (WAP four-disulfide core domain 5) | 2 | 88.5 | 68.6 | inactive
Wfdc5 (WAP four-disulfide core domain 5) | 3 | 40.6 | 44.4 | inactive
Tinagl1 (tubulointerstitial nephritis antigen-like 1) | 1 | 87.2 | 116 | inactive
Tinagl1 (tubulointerstitial nephritis antigen-like 1) | 2 | 116 | 58.5 | inactive
Nup88 (nucleoporin 88) | 1 | 40 | 21.3 | inactive
Nup88 (nucleoporin 88) | 2 | 69.1 | 81.1 | inactive
Nup88 (nucleoporin 88) | 3 | 63.8 | 45.6 | inactive
Zfy1 (zinc finger protein 1, Y-linked) | 1 | 37.5 | 47.4 | inactive
Zfy1 (zinc finger protein 1, Y-linked) | 2 | 76.6 | 93.4 | inactive
Zfy1 (zinc finger protein 1, Y-linked) | 3 | 99.4 | 90.9 | inactive
Bzw2 (basic leucine zipper and W2 domains 2) | 1 | 46.5 | 63.8 | inactive
Bzw2 (basic leucine zipper and W2 domains 2) | 2 | 48 | 67.8 | inactive
Bzw2 (basic leucine zipper and W2 domains 2) | 3 | 43.5 | 40.7 | inactive
Ehf (ets homologous factor) | 1 | 30.2 | 29.5 | inactive
Ehf (ets homologous factor) | 2 | 125 | 77.1 | active
Ehf (ets homologous factor) | 3 | 86.7 | 73.2 | inactive
Gpr39 (G protein-coupled receptor 39) | 1 | 115 | 44.7 | inactive
Gpr39 (G protein-coupled receptor 39) | 2 | 57.1 | 86.1 | inactive
Gpr39 (G protein-coupled receptor 39) | 3 | 140 | 85.5 | active
Phf24 (PHD finger protein 24) | 1 | 73.5 | 77 | inactive
Phf24 (PHD finger protein 24) | 2 | 68.7 | 84.6 | inactive
Phf24 (PHD finger protein 24) | 3 | 89.9 | 47.7 | inactive
Slc26a2 | 1 | 45.2 | 68.4 | inactive
Slc26a2 | 2 | 95.7 | 62.5 | inactive
Slc26a2 | 3 | 183 | 102 | active
Slc26a2 | 4 | 113 | 79.5 | inactive
Slc26a2 | 5 | 114 | 82 | inactive
Slc26a2 | 6 | 79.1 | 92 | inactive
Phlda1 (pleckstrin homology like domain, family A, member 1) | 1 | 50 | 50.5 | inactive
Phlda1 (pleckstrin homology like domain, family A, member 1) | 2 | 84.9 | 74.6 | inactive
Phlda1 (pleckstrin homology like domain, family A, member 1) | 3 | 87.3 | 109 | inactive
Tbc1d10a (TBC1 domain family, member 10a) | 1 | 86.5 | 82.7 | inactive
Tbc1d10a (TBC1 domain family, member 10a) | 2 | 132 | 94.4 | active
Tbc1d10a (TBC1 domain family, member 10a) | 3 | 87 | 45.2 | inactive
Or14j1 (olfactory receptor family 14 subfamily J member 1) | 1 | 48.3 | 63 | inactive
Or14j1 (olfactory receptor family 14 subfamily J member 1) | 2 | 52.2 | 77.6 | inactive
Or14j1 (olfactory receptor family 14 subfamily J member 1) | 3 | 70.8 | 58.8 | inactive
Zfp560 (zinc finger protein 560) | 1 | 109 | 67 | inactive
Zfp560 (zinc finger protein 560) | 2 | 88.9 | 93.8 | inactive
Zfp560 (zinc finger protein 560) | 3 | 78.5 | 84.6 | inactive

Only “GFP, % of control” (4 entries from above):
Nup88 (nucleoporin 88) #2	69.1
Nup88 (nucleoporin 88) #3	63.8
Zfy1 (zinc finger protein 1, Y-linked) #1	37.5
Zfy1 (zinc finger protein 1, Y-linked) #2	76.6
